This note sets out measurements from article PMC3673990, “Physicochemical Characterization of a Thermostable Alcohol Dehydrogenase from Pyrobaculum aerophilum” (PLoS ONE, 2013).

The chains behind the UniProt entries cited, without tags or fusion partners.
UniProt Q8ZUP0, entry or part of it: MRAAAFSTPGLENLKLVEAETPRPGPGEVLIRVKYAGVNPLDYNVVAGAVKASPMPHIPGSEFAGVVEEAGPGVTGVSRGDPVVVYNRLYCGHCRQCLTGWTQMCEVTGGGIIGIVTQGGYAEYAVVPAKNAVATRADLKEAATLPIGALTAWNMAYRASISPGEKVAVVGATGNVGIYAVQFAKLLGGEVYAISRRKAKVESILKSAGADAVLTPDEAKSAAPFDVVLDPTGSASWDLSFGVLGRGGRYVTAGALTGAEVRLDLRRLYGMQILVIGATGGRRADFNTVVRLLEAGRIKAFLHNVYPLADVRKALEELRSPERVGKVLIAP

The target of experiment [1] is T1, PyAeADHII (Pyrobaculum aerophilum, UniProt Q8ZUP0). Set-up: gene PAE2687. The settings on record: 70 °C, 260 nM enzyme, 80–1200 µM flunarizine dihydrochloride, 3 mM alpha-tetralone, 0.3 mM NADPH, 50 mM sodium phosphate pH 7.5.
The target in experiment [2] is T1, PyAeADHII. Put plainly: biochemical. Also noted: gene PAE2687.

One may read the IC50 as the concentration that inhibits the measured activity by half.

Structures can show the parent of a compound that is named as a salt.

`Fc1ccc(C(c2ccc(F)cc2)N2CCN(C/C=C/c3ccccc3)CC2)cc1` [flunarizine dihydrochloride]: the “% inhibition” value in experiment [1] is reported as 50–70%. The same molecule gave an IC50 in experiment [2] of around 40 µM.
